Test results published in PubChem BioAssay AID330 (DTP/NCI, 2004).
The list is a part of this screen's results and no random one: it is rich in T/C values a quarter to a half above the control, in often repeated tests (any T/C) and in doses without a T/C. Other doses and runs of a compound stand elsewhere. T/C gives the treated animals as a percentage of the vehicle group. Some entries give survivors of the animals treated and no T/C: the source files T/C as zero there, which appears to mark a toxic dose or a test without result, not a measured value. Some doses without a T/C left all or most animals alive at the check, yet need not have been tolerated: the source hardly ever lists a survival T/C far under the control, and the zero likely stands for such cases as well. Counts of survivors are from the toxicity check (mostly the fifth day) where no day follows; animals may have died later. Schedules are NCI's codes, read here as Q, the interval in days (D) or hours (H), X, the number of doses. Some doses were run more than once; the values are given in rising order. Marks such as (2×) give the number of equal values in this list. For survival time, this PubChem deposit counts one and a half times the control or more as active, and values a quarter to a half above the control carry no call in these data; other NCI protocols may use other cut-offs. Some T/C values carry the count of animals alive at the toxicity check (mostly the fifth day); without a count, all were alive then.

Tested on: P388 leukemia ip, CD2F1 mice, survival T/C
Assay: NCI In Vivo Anticancer Drug Screen. Data for tumor model P388 Leukemia (intraperitoneal) in CD2F1 (CDF1) mice
Details: T/C endpoint: median survival time, higher T/C = longer survival
[1] = dose: 50.0 mg/kg/injection, schedule: Q01DX009 (ip), vehicle: saline
[2] = dose: 100.0 mg/kg/injection, schedule: Q01DX009 (ip), vehicle: saline
[3] = dose: 50.0 mg/kg/injection, schedule: Q01DX009 (ip), vehicle: Klucel (hydroxypropylcellulose) (HPC)
[4] = dose: 100.0 mg/kg/injection, schedule: Q01DX009 (ip), vehicle: Klucel (hydroxypropylcellulose) (HPC)
[5] = dose: 200.0 mg/kg/injection, schedule: Q01DX009 (ip), vehicle: Klucel (hydroxypropylcellulose) (HPC)
[6] = dose: 60.0 mg/kg/injection, schedule: Q01DX005 (ip), vehicle: saline with Tween-80
[7] = dose: 120.0 mg/kg/injection, schedule: Q01DX005 (ip), vehicle: saline with Tween-80
[8] = dose: 240.0 mg/kg/injection, schedule: Q01DX005 (ip), vehicle: saline with Tween-80
[9] = dose: 200.0 mg/kg/injection, schedule: Q01DX005 (ip), vehicle: saline with Tween-80
[10] = dose: 200.0 mg/kg/injection, schedule: Q01DX005 (ip), vehicle: Klucel (hydroxypropylcellulose) (HPC)
[11] = dose: 240.0 mg/kg/injection, schedule: Q01DX005 (ip), vehicle: Klucel (hydroxypropylcellulose) (HPC)
[12] = dose: 100.0 mg/kg/injection, schedule: Q01DX005 (ip), vehicle: Klucel (hydroxypropylcellulose) (HPC)

Which survivor count (dose: 320.0 mg/kg/injection, schedule: Q04DX003 (ip), vehicle: other) does the source give for Nc1nc2ccccc2[nH]1 here?
The survivor count was 0 of 10.

And the survivor count (dose: 320.0 mg/kg/injection, schedule: Q04DX003 (oral), vehicle: other)?
The survivor count was 6 of 10.

And the survivor count (dose: 640.0 mg/kg/injection, schedule: Q04DX003 (ip), vehicle: other)?
Its survivor count is 0 of 10.

What about the survivor count (dose: 640.0 mg/kg/injection, schedule: Q04DX003 (oral), vehicle: other) of the same compound?
The survivor count was 0 of 10.

What does the source list for CN(C)CCOCN1COCC1(C)C?
T/C [1]: 137 % of control; T/C [2]: 129 % of control [4 of 6 alive]; T/C (dose: 150.0 mg/kg/injection, schedule: Q01DX009 (ip), vehicle: saline): 132 % of control

CN(C)CCCn1c(=O)nc2n(-c3ccccc3)c3ccccc3nc-2c1=O was tested. Which survivor count (dose: 12.5 mg/kg/injection, schedule: Q01DX009 (ip), vehicle: Klucel (hydroxypropylcellulose) (HPC)) did it give?
Its survivor count is 5 of 6.

And the survivor count (dose: 25.0 mg/kg/injection, schedule: Q01DX009 (ip), vehicle: Klucel (hydroxypropylcellulose) (HPC))?
The survivor count was 6 of 6.

What about the T/C [3] of the same compound?
The T/C was 126 % of control.

And the survivor count [3]?
The survivor count was 6 of 6.

What about the survivor count [4] of the same compound?
Its survivor count is 0 of 6.

What about the survivor count [5] of the same compound?
The survivor count was 0 of 6.

CNC(=S)/N=c1/sc([N+](=O)[O-])c(C)n1C was tested. Which survivor count (dose: 15.0 mg/kg/injection, schedule: Q01DX005 (ip), vehicle: saline with Tween-80) did it give?
Its survivor count is 6 of 6.

What about the survivor count (dose: 30.0 mg/kg/injection, schedule: Q01DX005 (ip), vehicle: saline with Tween-80) of the same compound?
The survivor count was 6 of 6.

And the survivor count [6]?
The survivor count was 6 of 6.

And the survivor count [7]?
The survivor count was 6 of 6.

What about the survivor count [8] of the same compound?
Its survivor count is 6 of 6.

COc1cc(C2c3cc4c(cc3CCN2C)OCO4)cc(OC)c1OC (stereo unspecified) was tested. Which survivor count [9] did it give?
The survivor count was 4 of 5.

For O=C1NC(=O)C(c2ccccc2)(c2ccccc2)N1CCS, which T/C (dose: 100.0 mg/kg/injection, schedule: Q04DX003 (ip), vehicle: Klucel (hydroxypropylcellulose) (HPC)) is on record?
The T/C was 126 % of control.

Which T/C (dose: 5.0 mg/kg/injection, schedule: Q04DX002 (ip), vehicle: water) does the source give for Cc1[nH]ccc2c(C)c3nc4ccc(O)cc4c3cc12 here?
The T/C was 125 % of control.

And the T/C (dose: 6.25 mg/kg/injection, schedule: Q04DX002 (ip), vehicle: water)?
The T/C was 126 % of control.

What about the T/C (dose: 10.0 mg/kg/injection, schedule: Q04DX002 (ip), vehicle: water) of the same compound?
Its T/C is 130 % of control.

And the T/C (dose: 12.5 mg/kg/injection, schedule: Q04DX002 (ip), vehicle: water)?
The T/C was 130 % of control [5 of 6 alive].

And the T/C (dose: 20.0 mg/kg/injection, schedule: Q04DX002 (ip), vehicle: water)?
Its T/C is 136 % of control [5 of 6 alive].

What about the T/C (dose: 25.0 mg/kg/injection, schedule: Q04DX002 (ip), vehicle: water) of the same compound?
The T/C was 141 % of control.

What about the T/C (dose: 50.0 mg/kg/injection, schedule: Q04DX002 (ip), vehicle: water) of the same compound?
The T/C was 141 % of control [5 of 6 alive].

And the survivor count (dose: 80.0 mg/kg/injection, schedule: Q04DX002 (ip), vehicle: water)?
The survivor count was 6 of 6.

What about the survivor count (dose: 100.0 mg/kg/injection, schedule: Q04DX002 (ip), vehicle: water) of the same compound?
Its survivor count is 3 of 6.

What about the survivor count (dose: 200.0 mg/kg/injection, schedule: Q04DX002 (ip), vehicle: water) of the same compound?
The survivor count was 0 of 6.

For CC1(C)[S][Sn]2[NH]C1C(=O)[O]2 (stereo unspecified), which survivor count [10] is on record?
The survivor count was 3 of 6.

How did the survivor count (dose: 200.0 mg/kg/injection, schedule: Q04DX003 (ip), vehicle: saline + Tween-80 + alcohol) turn out when CN(C)N=Nc1ccc(NC(N)=O)cc1 was run?
The survivor count was 1 of 6.

What about the survivor count (dose: 400.0 mg/kg/injection, schedule: Q04DX003 (ip), vehicle: saline + Tween-80 + alcohol) of the same compound?
Its survivor count is 0 of 6.

What does the source list for CCOC(=O)/C(C=NC1CC(N=C/C(C(=O)OCC)=C(\C)O)CC(N=C/C(C(=O)OCC)=C(\C)O)C1)=C(/C)O (stereo unspecified)?
survivor count [4]: 6 of 6; survivor count [5]: 6 of 6

What does the source list for CNC(=O)OCc1c(COC(=O)NC)c2n(c1C)-c1ccccc1CCC2?
T/C (dose: 5.0 mg/kg/injection, schedule: Q01DX005 (ip), vehicle: Klucel (hydroxypropylcellulose) (HPC)): 147 % of control; T/C (dose: 10.0 mg/kg/injection, schedule: Q01DX005 (ip), vehicle: Klucel (hydroxypropylcellulose) (HPC)): 141 % of control; survivor count (dose: 20.0 mg/kg/injection, schedule: Q01DX005 (ip), vehicle: Klucel (hydroxypropylcellulose) (HPC)): 6 of 6; survivor count (dose: 40.0 mg/kg/injection, schedule: Q01DX005 (ip), vehicle: Klucel (hydroxypropylcellulose) (HPC)): 0 of 6; survivor count (dose: 60.0 mg/kg/injection, schedule: Q01DX005 (ip), vehicle: Klucel (hydroxypropylcellulose) (HPC)): 0 of 6; survivor count (dose: 120.0 mg/kg/injection, schedule: Q01DX005 (ip), vehicle: Klucel (hydroxypropylcellulose) (HPC)): 0 of 6; survivor count [11]: 0 of 6

For COc1cc2c(c(OC)c1OC)-c1ccc(SC)c(=O)cc1[C@@H](NC1OC(CO)C(O)C(O)C1O)CC2 (stereo partly specified), which T/C (dose: 12.5 mg/kg/injection, schedule: Q01DX009 (ip), vehicle: saline, evaluated on day 30) is on record?
The T/C was 127, 128, 130 % of control.

And the T/C (dose: 12.5 mg/kg/injection, schedule: Q01DX009 (ip), vehicle: saline, evaluated on day 60)?
Its T/C is 130 % of control.

What about the T/C (dose: 25.0 mg/kg/injection, schedule: Q01DX009 (ip), vehicle: saline, evaluated on day 30) of the same compound?
Its T/C is 148 % of control (2×).

What about the T/C (dose: 25.0 mg/kg/injection, schedule: Q01DX009 (ip), vehicle: saline, evaluated on day 60) of the same compound?
Its T/C is 145 % of control.

And the survivor count [1]?
The survivor count was 6 of 6.

What about the survivor count [2] of the same compound?
The survivor count was 4 of 6 and 5 of 6 (2×).

With O=C(Oc1c(Cc2ccccc2)c(=O)[nH]c2ccccc12)c1ccccc1 as the compound, how does the survivor count [11] read?
The survivor count was 1 of 6.

C[n+]1c2n(c3ccccc31)CCn1c-2[n+](C)c2ccccc21 was tested. Which survivor count [4] did it give?
Its survivor count is 2 of 6.

CC(C)([CH2][Sn]([Cl])([CH2]C(C)(C)c1ccccc1)[O][Sn]([Cl])([CH2]C(C)(C)c1ccccc1)[CH2]C(C)(C)c1ccccc1)c1ccccc1 was tested. Which T/C (dose: 12.5 mg/kg/injection, schedule: Q01DX005 (ip), vehicle: Klucel (hydroxypropylcellulose) (HPC)) did it give?
The T/C was 133 % of control.

What about the survivor count (dose: 50.0 mg/kg/injection, schedule: Q01DX005 (ip), vehicle: Klucel (hydroxypropylcellulose) (HPC)) of the same compound?
The survivor count was 5 of 6.

What about the survivor count [12] of the same compound?
Its survivor count is 1 of 6.

What about the survivor count [10] of the same compound?
The survivor count was 0 of 6.

How did the survivor count [9] turn out when Cc1ccc(C(=O)NC2c3ccccc3Oc3ccccc32)cc1 was run?
Its survivor count is 5 of 5.

For COc1ccn(C2OC(COC(=O)c3ccccc3)C(OC(=O)c3ccccc3)C2OC(=O)c2ccccc2)c(=O)n1 (stereo unspecified), which survivor count [12] is on record?
The survivor count was 6 of 6.

With CN=C(NC)c1ccc(NC(=O)c2cc(C)cc(C(=O)Nc3ccc(C(=NC)NC)cc3)c2)cc1 as the compound, how does the survivor count (dose: 50.0 mg/kg/injection, schedule: Q01DX005 (ip), vehicle: saline with Tween-80) read?
Its survivor count is 0 of 6.

And the survivor count (dose: 100.0 mg/kg/injection, schedule: Q01DX005 (ip), vehicle: saline with Tween-80)?
The survivor count was 0 of 6.

What about the survivor count [9] of the same compound?
The survivor count was 0 of 6.

How did the T/C [6] turn out when Cn1c(=S)sc2nc3ccccc3n2c1=S was run?
The T/C was 129 % of control.

And the T/C [7]?
Its T/C is 128 % of control.

And the survivor count [8]?
The survivor count was 4 of 6 and 5 of 6.

With C(CCc1nn[nH]n1)CCC1CCCCC1 as the compound, how does the survivor count [9] read?
Its survivor count is 3 of 5.

What does the source list for CCCCCCC1(/C=C/c2ccc(Cl)c(Cl)c2)SCCS1?
T/C [1]: 133 % of control; survivor count [1]: 6 of 6; survivor count (dose: 200.0 mg/kg/injection, schedule: Q01DX009 (ip), vehicle: saline): 1 of 6
